In this test the target is T1, atOma1::FLAG (Arabidopsis thaliana) (UniProt Q9FLI5).
T1 sequence: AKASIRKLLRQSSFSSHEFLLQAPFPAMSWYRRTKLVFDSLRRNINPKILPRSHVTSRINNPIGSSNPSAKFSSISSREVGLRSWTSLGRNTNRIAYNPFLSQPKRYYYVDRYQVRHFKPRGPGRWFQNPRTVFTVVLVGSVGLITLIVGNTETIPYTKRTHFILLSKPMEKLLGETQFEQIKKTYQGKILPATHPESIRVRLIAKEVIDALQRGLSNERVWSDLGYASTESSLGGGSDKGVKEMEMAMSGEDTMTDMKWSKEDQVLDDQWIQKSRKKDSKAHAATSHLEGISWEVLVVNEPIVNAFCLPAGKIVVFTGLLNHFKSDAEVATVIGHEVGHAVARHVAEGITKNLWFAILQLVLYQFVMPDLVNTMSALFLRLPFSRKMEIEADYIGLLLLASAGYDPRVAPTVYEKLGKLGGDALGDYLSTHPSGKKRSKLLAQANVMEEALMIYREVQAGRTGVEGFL
Kind of test: co-IP; anti-DDDDK (FLAG) magnetic beads; digitonin-solubilised crude mitochondria of transgenic CMS sugar beet suspension cells; 1x PBS, 0.1% digitonin, overnight at 4°C; precipitates blotted with anti-FLAG and anti-preSATP6.

Our source for the binding values is paper PMC6894571.

No constants are given. Whether binding was seen depends on the method and setting. In cells and extracts the contact can be indirect. Sequences can lack the tags named with a protein.

Take preSATP6 protein: the binding entry is “no binding”.
